For at least one compound, name, drawing or mass did not settle the structure.
Tested on: SARS-CoV-2
Experiment: Virucidal efficacy: 30sec incubation of SARS-CoV-2 with mouth rinsing solution, then standard plaque assay on Vero E6 cells
Format: cell-based, Severe acute respiratory syndrome coronavirus 2
Conditions: 1x10^6 pfu SARS-CoV-2 incubated with solution (2-fold diluted) for 30sec at 37°C; Dilution 4 analyzed on Vero E6; compared to negative control
Description: A mouth rinsing solution according to the invention (see example 1 below) and some of their individual active components were tested regarding their virucidal efficacy against the novel coronavirus SARS-CoV-2, in vitro. To evaluate if this procedure is sufficient to successfully inactivate SARS-CoV-2, in the following study 1x10^6 infectious SARS-CoV-2 particles were incubated with the solutions (dilution factor: 2) for 30sec. After a serial dilution the samples were submitted to a standard plaque assay to check for the presence of infectious virus particles post incubation with the different solutions.
Test solutions: • Example 1 (0.1% Chlorhexidine (CHX), 0.05% CPC, PEG-40 hydrogenated castor oil), according to the invention Comparative examples: • 0.1% CHX plus 0.05% CPC • 0.05% CPC • 0.1% CHX • 1.5% H2O2 • 0.5% H2O2 […]
The samples were mixed briefly by vortexing and incubated at 37°C for 30sec. […] Dilution 4 of each sample was analyzed in technical duplicates in a plaque assay. […]
The virucidal activity of example 1 and some of their individual components were investigated against the novel corona virus SARS-CoV-2 by a 30sec incubation of 1x10^6 pfu SARS-CoV-2 with the test substances, followed by a standard plaque assay. […] Medium", positive control, in column 3, each analyzed in technical duplicates.

Structure (SMILES): CCCCCCCCCCCCCCCC[n+]1ccccc1 [0.05% CPC, Cetylpyridinium chloride]
- infectious SARS-CoV-2 particles / number of plaques in the plaque assay: some reduction in the number of plaques
